According to PubChem BioAssay AID248 (DTP/NCI, 2004):
The list does not hold the whole screen: it is rich in T/C values a quarter to a half above the control, in often repeated tests (any T/C) and in doses without a T/C. Other doses and runs of a compound stand elsewhere. T/C: endpoint of the treated group in % of that of the vehicle group. Some entries give survivors of the animals treated and no T/C: the source holds a T/C of zero for them, seemingly a mark for toxic or unscored doses. Some doses without a T/C left all or most animals alive at the check, yet need not have been tolerated: the source hardly ever lists a survival T/C far under the control, and the zero likely stands for such cases as well. Survivors were counted at the toxicity check, usually on the fifth day, unless a day is given; later deaths do not show. Schedule codes are those of the source, read here as Q, the interval in days (D) or hours (H), X, the number of doses. For survival time, this PubChem deposit counts one and a half times the control or more as active, and values a quarter to a half above the control carry no call in these data; other NCI protocols may use other cut-offs. Some entries were tested several times; the values are given in rising order. Some schedules carry Z or #; the key to these is not given. Some T/C values carry the count of animals alive at the toxicity check (mostly the fifth day); without a count, all were alive then.

Test system: L1210 leukemia ip in BDF1 mice, survival T/C
Assay: NCI In Vivo Anticancer Drug Screen. Data for tumor model L1210 Leukemia (intraperitoneal) in B6D2F1 (BDF1) mice
Details: T/C endpoint: mean survival time, higher T/C = longer survival

COc1cccc2c1C(=O)c1c(O)c3c(c(O)c1C2=O)C[C@@](O)(C(=O)CO)C[C@@H]3OC1CC(N)C(O)C(C)O1 (some centres undefined)
T/C (dose: 0.09 mg/kg/injection, schedule: Q01DX009 (ip), vehicle: saline): 130 % of control
T/C (dose: 0.25 mg/kg/injection, schedule: Q01DX004 (ip), vehicle: clinical formulation): 132 % of control
T/C (dose: 0.25 mg/kg/injection, schedule: Q01DX004 (ip), vehicle: saline): 129 % of control
T/C (dose: 0.25 mg/kg/injection, schedule: Q01DX008 (ip), vehicle: saline): 134 % of control [7 of 8 alive]
T/C (dose: 0.25 mg/kg/injection, schedule: Q03HX016 (ip), vehicle: water): 146 % of control
T/C (dose: 0.25 mg/kg/injection, schedule: Q03HX024 (ip), vehicle: water): 140 % of control
T/C (dose: 0.35 mg/kg/injection, schedule: Q01DX009 (ip), vehicle: saline): 118, 125, 137, 158 % of control
T/C (dose: 0.37 mg/kg/injection, schedule: Q03HX008 (ip), vehicle: saline, evaluated on day 5): 105 and 122 % of control
T/C (dose: 0.37 mg/kg/injection, schedule: Q03HX008 (ip), vehicle: saline, evaluated on day 60): 105 and 122 % of control
T/C (dose: 0.39 mg/kg/injection, schedule: Q01DX009 (ip), vehicle: water): 126 % of control
T/C (dose: 0.5 mg/kg/injection, schedule: Q01DX004 (ip), vehicle: clinical formulation): 145 % of control
T/C (dose: 0.5 mg/kg/injection, schedule: Q01DX004 (ip), vehicle: saline): 129 % of control
T/C (dose: 0.5 mg/kg/injection, schedule: Q01DX007 (ip), vehicle: water): 129 % of control
T/C (dose: 0.5 mg/kg/injection, schedule: Q03HX008 (ip), vehicle: water): 129 and 148 % of control
T/C (dose: 0.5 mg/kg/injection, schedule: Q06HX004 (ip), vehicle: water): 134 % of control
T/C (dose: 0.53 mg/kg/injection, schedule: Q03HX008 (ip), vehicle: clinical formulation): 145 % of control
T/C (dose: 0.65 mg/kg/injection, schedule: Q01DX009 (ip), vehicle: saline): 143 % of control
T/C (dose: 0.7 mg/kg/injection, schedule: Q01DX009 (ip), vehicle: saline): 114, 133, 137, 148 % of control
T/C (dose: 0.75 mg/kg/injection, schedule: Q01DX004 (ip), vehicle: saline): 140 % of control
T/C (dose: 0.75 mg/kg/injection, schedule: Q03HX008 (ip), vehicle: saline, evaluated on day 5): 104 and 144 % of control
T/C (dose: 0.75 mg/kg/injection, schedule: Q03HX008 (ip), vehicle: saline, evaluated on day 60): 104 and 144 % of control
T/C (dose: 0.78 mg/kg/injection, schedule: Q01DX009 (ip), vehicle: water): 147 % of control
T/C (dose: 0.8 mg/kg/injection, schedule: Q03HX008 (ip), vehicle: clinical formulation): 144 % of control
T/C (dose: 1.0 mg/kg/injection, schedule: Q01DX001 (ip), vehicle: saline): 125 % of control
T/C (dose: 1.0 mg/kg/injection, schedule: Q01DX003 (ip), vehicle: water): 130 % of control
T/C (dose: 1.0 mg/kg/injection, schedule: Q01DX004 (ip), vehicle: saline): 143 % of control
T/C (dose: 1.0 mg/kg/injection, schedule: Q01DX008 (ip), vehicle: saline): 148 % of control
T/C (dose: 1.0 mg/kg/injection, schedule: Q02DX008 (ip), vehicle: clinical formulation): 139 % of control
T/C (dose: 1.0 mg/kg/injection, schedule: Q03HX016 (ip), vehicle: water): 143 % of control
T/C (dose: 1.0 mg/kg/injection, schedule: Q06HX004 (ip), vehicle: water): 129 % of control
T/C (dose: 1.0 mg/kg/injection, schedule: Q## X Z (ip), vehicle: water): 143 % of control
T/C (dose: 1.0 mg/kg/injection, schedule: Q## X Z (sc), vehicle: water): 139 % of control
T/C (dose: 1.04 mg/kg/injection, schedule: Q04DX003 (ip), vehicle: saline): 139 % of control
T/C (dose: 1.1 mg/kg/injection, schedule: Q04DX002 (ip), vehicle: saline): 116, 117, 128, 129 % of control
T/C (dose: 1.2 mg/kg/injection, schedule: Q01DX004 (ip), vehicle: saline): 141 % of control
T/C (dose: 1.2 mg/kg/injection, schedule: Q03HX008 (ip), vehicle: clinical formulation): 145 % of control
T/C (dose: 1.25 mg/kg/injection, schedule: Q04DX003 (ip), vehicle: water): 129 % of control
T/C (dose: 1.4 mg/kg/injection, schedule: Q01DX009 (ip), vehicle: saline): 148, 175, 177, 189 % of control
T/C (dose: 1.5 mg/kg/injection, schedule: Q01DX001 (ip), vehicle: saline, evaluated on day 5): 145 % of control
T/C (dose: 1.5 mg/kg/injection, schedule: Q01DX001 (ip), vehicle: saline, evaluated on day 60): 145 % of control
T/C (dose: 1.5 mg/kg/injection, schedule: Q01DX004 (ip), vehicle: saline): 140 % of control
T/C (dose: 1.5 mg/kg/injection, schedule: Q01DX015 (ip), vehicle: clinical formulation): 132 % of control
T/C (dose: 1.5 mg/kg/injection, schedule: Q02DX008 (ip), vehicle: clinical formulation): 139 % of control
T/C (dose: 1.5 mg/kg/injection, schedule: Q03HX008 (ip), vehicle: saline, evaluated on day 5): 95 and 119 % of control
T/C (dose: 1.5 mg/kg/injection, schedule: Q03HX008 (ip), vehicle: saline, evaluated on day 60): 95 [8 of 10 alive] and 119 % of control
T/C (dose: 1.5 mg/kg/injection, schedule: Q04DX004 (ip), vehicle: clinical formulation): 129 % of control
T/C (dose: 1.56 mg/kg/injection, schedule: Q01DX009 (ip), vehicle: water): 130 % of control
T/C (dose: 1.6 mg/kg/injection, schedule: Q01DX004 (ip), vehicle: saline): 149 % of control
T/C (dose: 1.73 mg/kg/injection, schedule: Q04DX003 (ip), vehicle: saline): 141 % of control
T/C (dose: 1.8 mg/kg/injection, schedule: Q01DX004 (ip), vehicle: saline): 135 % of control
T/C (dose: 2.0 mg/kg/injection, schedule: Q01DX003 (ip), vehicle: water): 138 % of control
T/C (dose: 2.0 mg/kg/injection, schedule: Q01DX004 (ip), vehicle: saline, evaluated on day 30): 86, 98, 148, 156 % of control
T/C (dose: 2.0 mg/kg/injection, schedule: Q01DX004 (ip), vehicle: saline, evaluated on day 60): 148 % of control
survivor count (dose: 2.0 mg/kg/injection, schedule: Q03HX016 (ip), vehicle: water): 8 of 8
